Data: publication PMC9393728
Results are given in words; binding and its absence hold for the method and conditions named. Binding seen in cells or lysates may run through a third protein. Some binding calls cover weakened binding; strength is not graded here.

Protein sequences, listed by entry. Tags and fused reporters are not part of them.
UniProt P01108: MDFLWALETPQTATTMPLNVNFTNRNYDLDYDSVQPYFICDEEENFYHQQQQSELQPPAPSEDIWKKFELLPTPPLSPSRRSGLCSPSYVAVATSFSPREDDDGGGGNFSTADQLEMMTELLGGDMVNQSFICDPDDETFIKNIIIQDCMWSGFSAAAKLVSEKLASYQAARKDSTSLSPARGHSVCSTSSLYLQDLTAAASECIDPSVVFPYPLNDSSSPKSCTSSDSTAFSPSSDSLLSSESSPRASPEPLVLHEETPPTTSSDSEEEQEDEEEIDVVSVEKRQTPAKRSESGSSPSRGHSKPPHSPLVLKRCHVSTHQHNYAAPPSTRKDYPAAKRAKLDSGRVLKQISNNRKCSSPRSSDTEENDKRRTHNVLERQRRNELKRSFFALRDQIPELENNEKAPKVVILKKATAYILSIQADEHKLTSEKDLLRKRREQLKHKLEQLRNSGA
UniProt Q8VBV4: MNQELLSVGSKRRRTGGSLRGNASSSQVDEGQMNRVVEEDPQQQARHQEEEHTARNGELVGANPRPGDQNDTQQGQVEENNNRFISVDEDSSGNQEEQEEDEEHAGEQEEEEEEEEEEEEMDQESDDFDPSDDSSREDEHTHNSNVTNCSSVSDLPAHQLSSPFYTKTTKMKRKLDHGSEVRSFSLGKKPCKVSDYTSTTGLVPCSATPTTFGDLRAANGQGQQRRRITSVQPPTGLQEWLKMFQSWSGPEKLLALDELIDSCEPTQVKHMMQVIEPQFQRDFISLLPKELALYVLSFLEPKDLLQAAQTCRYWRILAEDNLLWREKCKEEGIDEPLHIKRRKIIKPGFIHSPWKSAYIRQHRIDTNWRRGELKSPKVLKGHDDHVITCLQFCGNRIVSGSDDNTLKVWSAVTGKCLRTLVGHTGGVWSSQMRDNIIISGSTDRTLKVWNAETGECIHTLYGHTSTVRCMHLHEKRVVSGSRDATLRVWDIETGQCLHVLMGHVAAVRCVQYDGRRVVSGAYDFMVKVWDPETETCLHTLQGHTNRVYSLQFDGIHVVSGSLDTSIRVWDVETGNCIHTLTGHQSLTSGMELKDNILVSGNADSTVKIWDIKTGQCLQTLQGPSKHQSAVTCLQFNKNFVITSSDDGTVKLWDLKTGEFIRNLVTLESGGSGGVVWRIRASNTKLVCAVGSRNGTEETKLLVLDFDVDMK

Molecular target: c-Myc (Myc) (mouse (endogenous in RAW264.7)) (UniProt P01108)
Assay: co-IP; MG-132 (5 uM) pretreated RAW264.7 cells stimulated with 2 uM EST12 protein for 0, 1 or 12 h; RIPA lysate; 3 ug anti-Myc antibody and protein A/G beads at 4°C overnight; Western blot for Myc and FBW7

**Q.** For “E3 ubiquitin ligase FBW7 (from UniProt Q8VBV4 1-710)”, which binding is on record?
**A.** Its binding is “binds”.
